# Patent US12150939B2, “Therapeutic drug for ectopic ossification having mechanism to inhibit PAR1” (NATIONAL UNIVERSITY CORPORATION KUMAMOTO UNIVERSITY, priority 2015, dated 2024)
# At least one compound was matched to its structure with a doubt left.
# Test system: FOP-derived fibroblasts
# Assay: Differentiation of FOP-derived fibroblasts to osteoblasts in the absence of serum when using each inhibitor (ALP immunostaining and ALP activity)
# Assay type: cell-based, human
# Conditions: 10 μM, BMP6 and TFLLR stimulation
smiles,measurement,value
O=c1cc(N2CCOCC2)oc2c(-c3ccccc3)cccc12 [LY294002],ALP activity,largely decreased
same,ALP expression (immunostaining),largely decreased
